Source: PubChem BioAssay AID1671190 (National Center for Advancing Translational Sciences (NCATS), 2021)
The campaign covered roughly 580,000 compounds. About 6,100 (1.1%) were called active. This list was built around the results that the source calls inconclusive (neither active nor inactive); the mix of calls is not that of the screen. The call rests on the fitted dose curve; in most records, active means well fitted inhibition curve with a large enough effect; inconclusive means small, poorly fitted or top-dose-only effect, or another doubt; inactive means no such curve, though single readings can be large or run the other way. Where the call is inconclusive, the potency comes from a doubtful curve fit.

Amino acid sequences for entries named in this document (tags omitted). A change or cut given only in a name is not applied to a line headed by its entry.
UniProt P18054: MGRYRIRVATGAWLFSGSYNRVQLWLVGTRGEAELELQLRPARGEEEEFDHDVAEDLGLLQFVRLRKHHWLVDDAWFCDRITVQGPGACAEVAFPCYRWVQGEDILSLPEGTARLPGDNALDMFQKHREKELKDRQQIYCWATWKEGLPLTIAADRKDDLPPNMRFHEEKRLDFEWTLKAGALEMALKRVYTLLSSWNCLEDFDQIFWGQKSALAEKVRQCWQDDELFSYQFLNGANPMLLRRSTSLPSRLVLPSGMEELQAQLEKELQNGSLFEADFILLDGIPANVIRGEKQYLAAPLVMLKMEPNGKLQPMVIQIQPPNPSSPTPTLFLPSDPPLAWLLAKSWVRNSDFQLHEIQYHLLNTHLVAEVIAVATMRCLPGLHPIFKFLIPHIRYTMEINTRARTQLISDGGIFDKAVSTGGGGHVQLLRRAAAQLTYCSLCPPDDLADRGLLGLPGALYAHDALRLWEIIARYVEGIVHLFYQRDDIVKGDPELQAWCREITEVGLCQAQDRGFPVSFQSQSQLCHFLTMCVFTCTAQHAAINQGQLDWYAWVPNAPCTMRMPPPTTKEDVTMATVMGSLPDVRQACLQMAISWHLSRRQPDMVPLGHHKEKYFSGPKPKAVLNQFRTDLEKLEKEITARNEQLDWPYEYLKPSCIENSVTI

target: Polyunsaturated fatty acid lipoxygenase ALOX12 (Homo sapiens) (UniProt P18054); assay: Primary qHTS assay for inhibitors of human arachidonate 12S-lipoxygenase (ALOX12): Round 2; details: purified 12hLO, xylenol orange hydroperoxide absorbance; activity change, negative = inhibition: at 108 µM (top of the series) unless noted
Summary of the method: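 Purified human 12hLO (150 nM final) in 25 mM Hepes, 0.01% Triton X-100, pH 7.0 was preincubated 15 min at room temperature with compound. Then 40 uM arachidonic acid was added, 30 min. Hydroperoxide was read by Fe-XO absorbance ratio 573/405 nm.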
On the % scale 0 is the no-effect control and ±100 the full control effect; potency means the concentration at half of the fitted maximal effect.

Compound	Potency	activity change, negative = inhibition
CC(CNC(=O)C1CCN(Cc2cc3ccccc3n2Cc2ccccc2)CC1)c1ccccc1 (stereo not given)	inconclusive: 126 µM [inhibitor, partial curve, poor fit]	–
O=S1(=O)NCC(O)c2sccc21 (stereo not given)	inconclusive: 100 µM [inhibitor, partial curve, poor fit]	–
CCCCCOc1ccc(C(=O)N(Cc2ccco2)C2CCS(=O)(=O)C2)cc1 (stereo not given)	–	inactive: -3.26%
Cc1ccc(S(=O)(=O)N2CCN(C(=O)c3cccs3)CC2)cc1	–	inactive: -3.66%
CCCc1noc(-c2cccn3c(CNC(=O)c4ccc(C)cc4)nnc23)n1	–	inactive: 90.5%
C/C(=N/Nc1ccc(S(N)(=O)=O)cc1[N+](=O)[O-])c1ccccc1Br	active: 35.5 µM	–
CCOc1ccccc1NC(=O)CSc1nccn1-c1ccc(Cl)cc1	–	inactive: 6.34%
O=C(OCC(=O)N1CCNC1=O)c1csc(NCc2ccccc2)n1	inconclusive: 7.08 µM [inhibitor, full curve]	–
COc1ccc(NC(=O)c2cc3ccccc3o2)cc1OC	–	inactive: -5.28%
Cn1nnnc1SC(C(=O)Nc1ccc(F)cc1)c1ccccc1 (stereo not given)	–	inactive: 1.24%
Nc1nc2c(s1)C(c1ccccc1)CC(=O)N2 (stereo not given)	active: 22.4 µM	–
CC1CN(c2ccccc2)NC1=O (stereo not given)	active: 28.2 µM	–
CSCCC(NC(=O)c1ccco1)C(=O)N1CCN(c2ccccc2O)CC1 (stereo not given)	inconclusive: 100 µM [inhibitor, single point]	–
COc1cc2c(cc1OC)C(C)N(C(=O)Cn1ncc3c1-c1ccccc1OC3)CC2 (stereo not given)	inconclusive: 22.4 µM [inhibitor, single point]	–
O=S(=O)(NCC1(COc2ccccc2)C[C@@H](O)[C@@H](O)C1)c1ccc(F)cc1 (stereo not given in full)	–	inactive: -0.525% [at 176 µM]
O=C(Cn1nc2c(cc1=O)CCCCC2)NC1CCCc2c1[nH]c1ccccc21 (stereo not given)	inconclusive: 50.1 µM [inhibitor, partial curve, poor fit]	–
Cc1ccc(S(=O)(=O)/N=C2\C=C(Nc3cccc(C(=O)O)c3)C(=O)c3ccccc32)c(C)c1	inconclusive: 44.7 µM [inhibitor, partial curve, poor fit]	–
CCC(C)NC(=O)CSc1nnc(C(=O)Nc2ccc(C)cc2)s1 (stereo not given)	–	inactive: -1.39%
CCOc1ccccc1NC(=O)C1CCCN(S(=O)(=O)c2ccc3c(c2)C(C)(C)C(=O)N3C)C1 (stereo not given)	–	inactive: 12.7% [at 57.4 µM]
Cc1ccc(C(=O)CNc2ccccc2)cc1	inconclusive: 39.8 µM [inhibitor, partial curve, poor fit]	–
Cc1cc(C(=O)NC2CCS(=O)(=O)C2)c2ccc(F)cc2n1 (stereo not given)	–	inactive: -6.05%
C=CCNC(=S)Nc1ccc(Br)cc1F	inconclusive: 79.4 µM [inhibitor, partial curve, poor fit]	–
CN=C(C)/C(C(=O)OC)=C(/O)c1ccc(Cl)cc1Cl	inconclusive: 100 µM [inhibitor, single point]	–

Compound	Potency	activity change, negative = inhibition
COc1cc(NC(=O)c2nnn(CC(=O)Nc3ccccc3)c2N)cc(OC)c1	inconclusive: 79.4 µM [inhibitor, partial curve, poor fit]	–
COc1cccc(CN2CCC2(C)C(=O)Nc2ccc(Cl)c(Cl)c2)c1F (stereo not given)	inconclusive: 79.4 µM [inhibitor, partial curve, poor fit]	–
CC(C)(C#N)c1cc(Cn2cncn2)cc(C(C)(C)C#N)c1	inconclusive: 0.863 µM [inhibitor, full curve, poor fit]	–
COc1ccc2cc(-c3cc(C(=O)OCC(=O)Nc4c(C)n(C)n(-c5ccccc5)c4=O)c4ccccc4n3)ccc2c1	inconclusive: 50.1 µM [inhibitor, partial curve, poor fit]	–
Cc1c(C(=O)O)nnn1-c1ccccc1	inconclusive: 35.5 µM [inhibitor, partial curve, poor fit]	–
Nc1ccc(Nc2ccccc2)cc1	inconclusive: 14.1 µM [inhibitor, partial curve, poor fit]	–
CCOc1c(Cl)cc(Cl)cc1CNCc1ccccn1	–	inactive: 13.5%
Cc1oc(-c2ccccc2F)nc1CS(=O)(=O)CC(=O)NCc1ccco1	inconclusive: 126 µM [inhibitor, single point]	–
CCCCSCCCNC(=S)Nc1ccccc1C	inconclusive: 44.7 µM [inhibitor, partial curve, poor fit]	–
CCN1CCN(CCCNC(=O)CN2CC3CC(C2)[C@H]2CCCC(=O)N2C3)CC1 (stereo not given in full)	–	inactive: 17.3%
COc1cc(NC(=O)c2cccs2)ccc1NC(=O)Cc1ccccc1	–	inactive: 9.27%
COc1ccccc1C(=O)Oc1ccc2c(c1)O/C(=C\c1ccncc1)C2=O	–	inactive: -0.999%
COC(=O)C1=C(C)N(Cc2cccc(C(F)(F)F)c2)C(=NCc2ccc(C(F)(F)F)cc2)NC1c1ccc(Cl)cc1 (stereo not given)	inconclusive: 79.4 µM [inhibitor, partial curve, poor fit]	–
CSc1nc(-c2ccc(F)cc2)nc2c1Cc1c(CO)cnc(C)c1O2	inconclusive: 2 µM [inhibitor, single point]	–
Oc1ccc(Nc2nccc3[nH]c(-c4cccc(F)c4)cc23)cc1	inconclusive: 100 µM [inhibitor, single point]	–
C=CCN=C1NC(CCc2ccccc2)C(C(=O)OC)=C(C)N1C (stereo not given)	inconclusive: 56.2 µM [inhibitor, single point]	–
O=C(c1ccccc1)N1CC=C(c2c[nH]c3ccccc23)CC1	inconclusive: 39.8 µM [inhibitor, partial curve]	–
C=CC[C@H](CC(=O)NCCO)C(=O)N[C@@H](COC(=O)[C@H](CC=C)CC(=O)OC(C)(C)C)Cc1ccccc1	inconclusive: 31.6 µM [inhibitor, single point]	–
O=C(NCc1ccccc1Cl)C1CCCN(c2cnc3ccccc3n2)C1 (stereo not given)	inconclusive: 56.2 µM [inhibitor, partial curve, poor fit]	–
CSc1nnc(-c2sc3cc(C(F)(F)F)cnc3c2-c2ccccc2)n1C	–	inactive: 0%
Cc1ccc(-c2nc(CS(=O)CC(=O)N3CCN(c4ccccc4)CC3)c(C)o2)cc1 (stereo not given)	inconclusive: 126 µM [inhibitor, partial curve, poor fit]	–
Cc1ccc(/C=N/NC(=O)Cn2nnc(N)n2)cc1	–	inactive: 10.9%

Ordered by length of the SMILES (largest number first): three of the compounds above
Compound	Potency	activity change, negative = inhibition
C=CC[C@H](CC(=O)NCCO)C(=O)N[C@@H](COC(=O)[C@H](CC=C)CC(=O)OC(C)(C)C)Cc1ccccc1	inconclusive: 31.6 µM [inhibitor, single point]	–
COc1cc(NC(=O)c2cccs2)ccc1NC(=O)Cc1ccccc1	–	inactive: 9.27%
CCOc1c(Cl)cc(Cl)cc1CNCc1ccccn1	–	inactive: 13.5%
